# Results taken from US5871960, “Nucleic acids encoding CR5 polypeptide, vector and transformed cell thereof, and expression thereof” (Trustees of Dartmouth College).
# Amino acid sequences for entries named in this document (tags omitted). Chains listed by the source or under a name are the forms on record and can include a tag or linker.
# UniProt O14503, other isoform, or with tags, fused parts or gaps: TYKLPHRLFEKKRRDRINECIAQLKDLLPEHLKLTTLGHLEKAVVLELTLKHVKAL
# The comparison behind a weaker result is the experiment's own reference, which may not be listed here.
# Legend:
# [1] = target: CR8 bHLH domain (BHLHE40/DEC1) (human) (UniProt O14503); assay: EMSA; settings: same buffer; purified recombinant protein; label: 32P 5' end
# [2] = target: CR8 bHLH domain (BHLHE40/DEC1) (human) (UniProt O14503); assay: competition with a labelled probe; settings: unlabeled competitor against labeled Class B probe; purified recombinant protein; label: 32P 5' end
Sequence,binding result [1],binding result [2]
GATCACGCCACGAGCCACAAGGATTG / GATCCAATCCTTGTGGCTCGTGGCGT [N-box probe (E(spl) m8 promoter)],binds more weakly,–
GATCGGCAGCCGGCACGCGACAGGGCC / GATCGGCCCTGTCGCGTGCCGGCTGCC [Class C probe (AS-C T5 promoter)],–,binds more weakly
